Article PMC8641947
Results are given in words; binding and its absence hold for the method and conditions named. Binding seen in cells or lysates may run through a third protein. Here binding means that the protein was enriched with, or labelled near, the bait; the list need not be complete. Tags and fused reporters may be left off the sequences shown.

Biological target: T1, Flag-FBXO45 (human F-box/SPRY domain-containing protein 1 tagged with 3xFlag) (human) (UniProt P0C2W1)
T1 sequence: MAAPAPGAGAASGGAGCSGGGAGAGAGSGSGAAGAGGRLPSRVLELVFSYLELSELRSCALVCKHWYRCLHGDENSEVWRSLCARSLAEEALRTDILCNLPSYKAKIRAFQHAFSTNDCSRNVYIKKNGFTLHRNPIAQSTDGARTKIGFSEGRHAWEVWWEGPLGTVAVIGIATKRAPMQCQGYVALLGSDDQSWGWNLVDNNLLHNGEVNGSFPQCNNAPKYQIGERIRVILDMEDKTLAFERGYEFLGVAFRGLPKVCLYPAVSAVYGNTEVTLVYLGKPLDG
Test: affinity purification with mass spectrometry; HCCLM3 cells transfected with Flag-tagged FBXO45; lysates precipitated with anti-Flag M2 IgG or normal nontargeting IgG, then mass spectrometry

With “Insulin-like growth factor 2 mRNA-binding protein 1 (IGF2BP1), endogenous (from UniProt Q9NZI8-1 1-577)” the binding was “binds”.
